Measured values reported in the supplement of paper PMC4604168 (melanoma cell lines).
The list shows a part of the results. Single values are uncertain, as repeats are few or missing.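 Imaging used 1,536-well plates; nuclei positive for cleaved PARP by antibody were divided by total DNA-stained nuclei to yield the apoptosis fraction. Doses for screening kept most cells viable, and cell lines differ markedly in resting and induced cleaved-PARP levels.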

Legend:
Assay in all cases: cleaved PARP positive nuclei fraction relative to DMSO control; melanoma cells; higher = more apoptosis
Details in all cases: library dose: low library concentration; 72 h
MZ2-MEL = tested on: MZ2-MEL
MeWo = tested on: MeWo
RPMI7951 = tested on: RPMI7951
RVH-421 = tested on: RVH-421
SkMel28 = tested on: SkMel28
SkMel2 = tested on: SkMel2
SkMel30 = tested on: SkMel30
UACC62 = tested on: UACC62
WM115 = tested on: WM115
WM1716 = tested on: WM1716
WM1745 = tested on: WM1745
WM3526 = tested on: WM3526
WM3619 = tested on: WM3619
WM451Lu = tested on: WM451Lu

SMILES	cleaved PARP positive nuclei fraction (MZ2-MEL) [%]	cleaved PARP positive nuclei fraction (MeWo) [%]	cleaved PARP positive nuclei fraction (RPMI7951) [%]	cleaved PARP positive nuclei fraction (RVH-421) [%]	cleaved PARP positive nuclei fraction (SkMel28) [%]	cleaved PARP positive nuclei fraction (SkMel2) [%]	cleaved PARP positive nuclei fraction (SkMel30) [%]	cleaved PARP positive nuclei fraction (UACC62) [%]	cleaved PARP positive nuclei fraction (WM115) [%]	cleaved PARP positive nuclei fraction (WM1716) [%]	cleaved PARP positive nuclei fraction (WM1745) [%]	cleaved PARP positive nuclei fraction (WM3526) [%]	cleaved PARP positive nuclei fraction (WM3619) [%]	cleaved PARP positive nuclei fraction (WM451Lu) [%]
N#CC[C@H](C1CCCC1)n1cc(-c2ncnc3[nH]ccc23)cn1 [ruxolitinib] + CCCCCCCCc1ccc(CCC(N)(CO)CO)cc1 [fingolimod] (first compound 1 µM, partner dose 2 µM)	89.3	150	139	149	89.9	189	71.4	40.3	91	51.9	104	39.2	101	121
Cc1ccc(Nc2nccc(N(C)c3ccc4c(C)n(C)nc4c3)n2)cc1S(N)(=O)=O [Pazopanib] + NC(=O)c1ccc(N(C(N)=O)c2c(F)cccc2F)nc1-c1ccc(F)cc1F [VX702] (first compound 0.4 µM, partner dose 0.4 µM)	124	55.9	31.3	55.1	76.9	57.1	74.6	54.3	68.8	850	112	91.5	85.9	44.1
N#CC[C@H](C1CCCC1)n1cc(-c2ncnc3[nH]ccc23)cn1 [ruxolitinib] + CCCS(=O)(=O)Nc1ccc(F)c(C(=O)c2c[nH]c3ncc(Cl)cc23)c1F [PLX4720] (first compound 1 µM, partner dose 0.08 µM)	196	207	91.6	179	64.4	102	82.5	135	135	66.8	81.7	23.7	97	492
COc1cc([C@@H]2c3cc4c(cc3[C@@H](O[C@@H]3O[C@@H]5CO[C@@H](C)O[C@H]5[C@H](O)[C@H]3O)[C@H]3COC(=O)[C@H]23)OCO4)cc(OC)c1O [etoposide] + CN(c1ncccc1CNc1nc(Nc2ccc3c(c2)CC(=O)N3)ncc1C(F)(F)F)S(C)(=O)=O [PF562271] (first compound 0.02 µM, partner dose 0.08 µM)	86.1	117	212	39.6	106	183	119	59.5	67.7	85.7	211	95.4	108	102
CC[C@]1(O)C[C@H]2CN(CCc3c([nH]c4ccccc34)[C@@](C(=O)OC)(c3cc4c(cc3OC)N(C=O)[C@H]3[C@@](O)(C(=O)OC)[C@H](OC(C)=O)[C@]5(CC)C=CCN6CC[C@]43[C@@H]65)C2)C1 [vincristine] + O=C(Nc1cc(C(F)(F)F)cc(C(F)(F)F)c1)c1cc(Cl)ccc1O [IMD0354] (first compound 0.0001 µM, partner dose 0.016 µM)	189	173	188	104	93	67.2	203	127	746	268	110	151	200	180
O=c1[nH]nc(Sc2ncc([N+](=O)[O-])s2)n1-c1ccc2c(c1)OCCO2 + C=CCNC1=C2C[C@@H](C)C[C@H](OC)[C@H](O)[C@@H](C)/C=C(\C)[C@H](OC(N)=O)[C@@H](OC)/C=C\C=C(/C)C(=O)NC(=CC1=O)C2=O [Tanespimycin] (first compound 0.2 µM, partner dose 0.002 µM)	45.1	134	65.7	142	82.1	138	93.8	57.7	156	117	84.3	29	96.1	48.9
O=c1[nH]nc(Sc2ncc([N+](=O)[O-])s2)n1-c1ccc2c(c1)OCCO2 + C[C@]1(c2nc3c(C(N)=O)cccc3[nH]2)CCCN1 [Veliparib] (first compound 0.2 µM, partner dose 1.4 µM)	122	104	35.7	51.4	26.3	191	63.1	81.3	91.7	66.6	76.6	55.1	85.9	69.5
Cc1cc(Nc2cc(N3CCN(C)CC3)nc(Sc3ccc(NC(=O)C4CC4)cc3)n2)n[nH]1 [Tozasertib] + C[C@@H](N)c1ccc(C(=O)Nc2ccnc3[nH]ccc23)cc1 [RKI983] (first compound 0.006 µM, partner dose 0.4 µM)	140	148	118	143	160	34.1	52.7	70.5	86.2	247	93.6	73.4	68.1	193
O=C(/C=C/c1cccnc1)NCCCCC1CCN(C(=O)c2ccccc2)CC1 + C[C@@H](N)c1ccc(C(=O)Nc2ccnc3[nH]ccc23)cc1 [RKI983] (first compound 0.01 µM, partner dose 0.4 µM)	1460	252	121	226	78.5	2050	201	47.4	107	143	104	34.3	122	103
Cc1cn(-c2cc(NC(=O)c3ccc(C)c(Nc4nccc(-c5cccnc5)n4)c3)cc(C(F)(F)F)c2)cn1 [nilotinib] + C[C@@H](Oc1cc(-c2cnn(C3CCNCC3)c2)cnc1N)c1c(Cl)ccc(F)c1Cl [Crizotinib] (first compound 0.2 µM, partner dose 0.2 µM)	38.6	78.9	80.2	23.3	74.9	5870	81.3	66.2	106	63.9	1020	25.3	106	104
N#CC[C@H](C1CCCC1)n1cc(-c2ncnc3[nH]ccc23)cn1 [ruxolitinib] + CNC(=O)c1cc(Oc2ccc(NC(=O)Nc3ccc(Cl)c(C(F)(F)F)c3)cc2)ccn1 [sorafenib] (first compound 1 µM, partner dose 0.4 µM)	23.9	135	48.1	88.7	49	95.6	31.2	48.4	91.4	324	88.9	80.4	76	31.4
O=c1[nH]nc(Sc2ncc([N+](=O)[O-])s2)n1-c1ccc2c(c1)OCCO2 + CCN(CC)CCNC(=O)c1c(C)[nH]c(/C=C2\C(=O)Nc3ccc(F)cc32)c1C [sunitinib] (first compound 0.2 µM, partner dose 0.4 µM)	60.1	51.2	204	46.4	75.1	29.5	80.4	82	99.1	28.9	97.1	31.5	90.3	102
O=C(Nc1cc(C(F)(F)F)cc(C(F)(F)F)c1)c1cc(Cl)ccc1O + COCC[n+]1c2c(n(Cc3cnccn3)c1C)C(=O)c1ccccc1C2=O [YM155] (first compound 0.016 µM, partner dose 0.0004 µM)	120	78	156	168	37.5	110	69.9	126	51.6	99.3	92.2	40.1	95.7	242
O=c1[nH]nc(Sc2ncc([N+](=O)[O-])s2)n1-c1ccc2c(c1)OCCO2 + O=C(/C=C/c1cccnc1)NCCCCC1CCN(C(=O)c2ccccc2)CC1 [FK866] (first compound 0.2 µM, partner dose 0.01 µM)	184	130	197	137	39.3	443	254	167	105	111	168	74.3	111	85.3
CCCCCCCCCCCCCCCCCCOP(=O)([O-])OC1CC[N+](C)(C)CC1 [Perifosine] + C=C(c1ccc(C(=O)O)cc1)c1cc2c(cc1C)C(C)(C)CCC2(C)C [Bexarotene] (first compound 0.4 µM, partner dose 2 µM)	177	99.6	82.4	105	105	39	91.7	273	37.1	144	119	102	104	107
Cc1cc(Nc2cc(N3CCN(C)CC3)nc(Sc3ccc(NC(=O)C4CC4)cc3)n2)n[nH]1 [Tozasertib] + C[C@]1(O)C[C@@H](c2nc(-c3ccc4ccc(-c5ccccc5)nc4c3)c3c(N)nccn32)C1 [OSI906] (first compound 0.006 µM, partner dose 0.4 µM)	81.8	207	189	183	89.3	61.7	168	60.5	27.8	244	109	44.9	92.5	193
N#CC[C@H](C1CCCC1)n1cc(-c2ncnc3[nH]ccc23)cn1 [ruxolitinib] + C=CCNC1=C2C[C@@H](C)C[C@H](OC)[C@H](O)[C@@H](C)/C=C(\C)[C@H](OC(N)=O)[C@@H](OC)/C=C\C=C(/C)C(=O)NC(=CC1=O)C2=O [Tanespimycin] (first compound 1 µM, partner dose 0.002 µM)	135	92	54.7	86.4	66.2	146	64.9	48.1	50	452	126	88.3	140	257
O=C(/C=C/c1cccnc1)NCCCCC1CCN(C(=O)c2ccccc2)CC1 + Cn1cnc2c(F)c(Nc3ccc(Br)cc3Cl)c(C(=O)NOCCO)cc21 [selumetinib] (first compound 0.01 µM, partner dose 0.015 µM)	192	178	53.2	371	188	713	95.8	131	73.1	74.4	102	44.2	110	59.3
N#CC[C@H](C1CCCC1)n1cc(-c2ncnc3[nH]ccc23)cn1 [ruxolitinib] + CC[C@]1(O)C[C@H]2CN(CCc3c([nH]c4ccccc34)[C@@](C(=O)OC)(c3cc4c(cc3OC)N(C=O)[C@H]3[C@@](O)(C(=O)OC)[C@H](OC(C)=O)[C@]5(CC)C=CCN6CC[C@]43[C@@H]65)C2)C1 [vincristine] (first compound 1 µM, partner dose 0.0001 µM)	79.8	172	134	120	93.4	121	102	118	211	511	99.2	44.9	144	445
